In patent US20150293109A1, “Fluorescent Chemical Dye for Visualization of Neural Stem Cell Symmetric and Asymmetric Division” (NATIONAL UNIVERSITY OF SINGAPORE, priority 2012, published 2015):
For at least one compound, name, drawing or mass did not settle the structure.

Assays:
neurospheres = experiment: Dye retention in stained neurospheres after paraformaldehyde fixation and methanol extraction; type: cell-based, mouse; conditions: 4% paraformaldehyde fixation followed by absolute methanol
Source text: To determine if CDy5 forms a covalent bond with a protein, neurospheres stained with CDy5 and Hoechst 33342 were fixed using 4% paraformaldehyde followed by absolute methanol, which extracts organic dyes bound to their targets by noncovalent bonding. Both CDy5 and Hoechst signals were detected when observed after fixation with paraformaldehyde.

[1] = target: T1, acid ceramidase (AC) β subunit (Mus musculus, UniProt Q9WV54); experiment: Identification of the cellular binding target by proteomics, Western blot, pull-down, MS/MS; conditions: MS/MS fragment analysis of protein from CDy5-stained neurospheres
T1 construct: which is processed into nonglycosylated α subunit and glycosylated β subunit; endogenous in cells; host or cells: mouse neurosphere cells (neural stem/progenitor cells) stained live with CDy5
T1 sequence (Q9WV54 142-394 limits assumed): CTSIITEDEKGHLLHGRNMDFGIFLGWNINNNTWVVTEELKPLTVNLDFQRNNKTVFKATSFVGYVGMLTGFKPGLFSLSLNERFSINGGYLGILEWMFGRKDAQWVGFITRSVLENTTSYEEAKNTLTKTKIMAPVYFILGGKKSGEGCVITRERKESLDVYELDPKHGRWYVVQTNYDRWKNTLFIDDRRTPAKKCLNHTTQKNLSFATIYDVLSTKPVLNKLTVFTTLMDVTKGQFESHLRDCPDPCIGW
T1 sequence (Q9WV54 19-141 partner limits assumed): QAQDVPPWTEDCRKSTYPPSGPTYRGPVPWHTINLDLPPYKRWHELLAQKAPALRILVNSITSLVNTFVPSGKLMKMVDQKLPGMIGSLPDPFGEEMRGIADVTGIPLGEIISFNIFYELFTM

CN(CCNC(=O)CCl)c1ccc2c(-c3cccc(CN4CCOCC4)c3)c3ccc(=N)cc-3oc2c1 [CDy5]
dye signal following methanol treatment (neurospheres): remained without losing its signal intensity
binding site on target protein [1]: binds to the first N-terminal amino acid residue cysteine of AC β subunit
